These results are taken from US20060235215A1.

These are yes or no findings as the source states them, for the method shown. Some results given as binding are weak or reduced against the parent protein; the word gives no strength.

Common to all, as to assay: yeast two-hybrid
The target in assay [1] is T1, Elicitor responsive protein, bait fragment aa 23-120 (Oryza sativa) (UniProt Q0JBH9).
T1 sequence: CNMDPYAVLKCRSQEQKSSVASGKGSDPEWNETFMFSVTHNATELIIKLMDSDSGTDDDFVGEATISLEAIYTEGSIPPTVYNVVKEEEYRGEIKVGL

The target of assay [2] is T2, O. sativa Defender Against Apoptotic Death 1, bait clone aa 30-115 (Oryza sativa) (UniProt A2XSY1).
T2 sequence: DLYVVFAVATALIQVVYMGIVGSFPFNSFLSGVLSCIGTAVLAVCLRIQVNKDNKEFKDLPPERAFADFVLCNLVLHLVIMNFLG

For assay [3], the target named is T3, O. sativa 14-3-3 Protein Homolog GF14-c, bait fragment aa 1-150 (Oryza sativa) (UniProt Q6ZKC0).
T3 sequence: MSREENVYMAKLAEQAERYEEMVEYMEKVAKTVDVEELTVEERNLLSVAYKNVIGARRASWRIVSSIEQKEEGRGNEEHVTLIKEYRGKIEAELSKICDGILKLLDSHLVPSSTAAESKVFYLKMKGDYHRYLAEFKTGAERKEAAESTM

B1: Xanthine dehydrogenase-like PN29997, prey clone printed 737/918 (protein)
chain: KAGSFHPNSKRCLVKGNVEQCFLSGACDRIIEGKVQVGGQEHFYMEPQSTLVWPVDSGNEIHMISSTQAPQKHQKYVANVLGLPQSRVVCKTKRIGGGFGGKETRSAIFAAAASVAAYCLRQPVKLVLDRDIDMMTTGQRHSFLGKYKVGFTDDGKILALDLDVYNNGGHSHDLSLPVLERA
With B1, in assay [1], the binding result is “binds”.

B2: Novel Protein PN23022, Fragment, similar to H. vulgare Plasma Membrane H+-ATPase, prey clone aa 37-371 (protein)
chain: LFDPPRHDSAETIRKALHLGVNVKMITGDQLAIGKETGRRLGMGTNMYPSSALLGQNKDASLEALPVDELIEKADGFAGVFPEHKYEIVKRLQEKKHIVGMTGDGVNDAPALKKADIGIAVADAIDAARSASDIVLTEPGLSVIISAVLTSRCIFQRMKNYTIYAVSITIRIVLGFLLIALIWKYDFSPFMVLIIAILNDGTIMTISKDRVKPSPLPDSWKLKEIFATGIVLGSYLALMTVIFFWAMHKTDFFTDKFGVRSIRNSEHEMMSALYLQVSIVSQALIFVTRSRSWSFIERPGLLLVTAFMLAQLVATFLAVYANWGFARIKGIGWGW
Regarding B2, the binding entry in assay [2] was “binds”.

B3: Novel Protein PN23022, Fragment, similar to H. vulgare Plasma Membrane H+-ATPase, prey clone aa 149-285 (protein)
chain: KKADIGIAVADAIDAARSASDIVLTEPGLSVIISAVLTSRCIFQRMKNYTIYAVSITIRIVLGFLLIALIWKYDFSPFMVLIIAILNDGTIMTISKDRVKPSPLPDSWKLKEIFATGIVLGSYLALMTVIFFWAMHK
In the case of B3, in assay [3], the binding entry was “binds”.
